Measurements published in article PMC5974921.
No constants are given. Whether binding was seen depends on the method and setting. Some entries that bind do so weakly or less than the wild type.

The chains behind the UniProt entries cited, without tags or fusion partners. Where a name states a change or a piece, a line headed by the entry shows the natural chain unless it says otherwise.
UniProt P08514: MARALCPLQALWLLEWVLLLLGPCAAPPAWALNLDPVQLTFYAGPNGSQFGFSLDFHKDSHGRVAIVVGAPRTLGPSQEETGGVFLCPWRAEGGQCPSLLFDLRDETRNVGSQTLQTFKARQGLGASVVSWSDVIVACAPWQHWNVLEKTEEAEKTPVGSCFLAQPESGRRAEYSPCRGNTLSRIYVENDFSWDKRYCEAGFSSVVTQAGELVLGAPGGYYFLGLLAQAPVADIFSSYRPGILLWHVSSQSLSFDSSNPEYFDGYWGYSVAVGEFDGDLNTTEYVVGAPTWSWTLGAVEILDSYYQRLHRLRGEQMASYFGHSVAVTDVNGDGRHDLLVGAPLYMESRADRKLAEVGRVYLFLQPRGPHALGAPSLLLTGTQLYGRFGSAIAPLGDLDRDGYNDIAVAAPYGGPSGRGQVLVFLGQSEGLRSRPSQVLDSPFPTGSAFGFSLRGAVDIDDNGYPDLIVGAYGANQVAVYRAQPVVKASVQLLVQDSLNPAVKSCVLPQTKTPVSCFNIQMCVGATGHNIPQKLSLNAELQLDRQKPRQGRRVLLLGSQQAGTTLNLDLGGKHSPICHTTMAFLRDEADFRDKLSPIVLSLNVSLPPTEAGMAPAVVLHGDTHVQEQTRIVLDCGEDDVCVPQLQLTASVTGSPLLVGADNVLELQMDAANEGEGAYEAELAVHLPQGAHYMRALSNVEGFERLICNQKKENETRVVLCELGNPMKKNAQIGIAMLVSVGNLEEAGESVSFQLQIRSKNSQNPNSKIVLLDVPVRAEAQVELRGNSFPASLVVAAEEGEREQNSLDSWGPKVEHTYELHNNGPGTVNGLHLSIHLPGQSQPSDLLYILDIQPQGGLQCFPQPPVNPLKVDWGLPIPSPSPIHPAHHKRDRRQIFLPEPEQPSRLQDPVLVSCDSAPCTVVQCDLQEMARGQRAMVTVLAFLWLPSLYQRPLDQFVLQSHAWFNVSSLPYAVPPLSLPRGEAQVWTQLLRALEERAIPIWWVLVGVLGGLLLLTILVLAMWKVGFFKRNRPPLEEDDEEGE
UniProt P05106: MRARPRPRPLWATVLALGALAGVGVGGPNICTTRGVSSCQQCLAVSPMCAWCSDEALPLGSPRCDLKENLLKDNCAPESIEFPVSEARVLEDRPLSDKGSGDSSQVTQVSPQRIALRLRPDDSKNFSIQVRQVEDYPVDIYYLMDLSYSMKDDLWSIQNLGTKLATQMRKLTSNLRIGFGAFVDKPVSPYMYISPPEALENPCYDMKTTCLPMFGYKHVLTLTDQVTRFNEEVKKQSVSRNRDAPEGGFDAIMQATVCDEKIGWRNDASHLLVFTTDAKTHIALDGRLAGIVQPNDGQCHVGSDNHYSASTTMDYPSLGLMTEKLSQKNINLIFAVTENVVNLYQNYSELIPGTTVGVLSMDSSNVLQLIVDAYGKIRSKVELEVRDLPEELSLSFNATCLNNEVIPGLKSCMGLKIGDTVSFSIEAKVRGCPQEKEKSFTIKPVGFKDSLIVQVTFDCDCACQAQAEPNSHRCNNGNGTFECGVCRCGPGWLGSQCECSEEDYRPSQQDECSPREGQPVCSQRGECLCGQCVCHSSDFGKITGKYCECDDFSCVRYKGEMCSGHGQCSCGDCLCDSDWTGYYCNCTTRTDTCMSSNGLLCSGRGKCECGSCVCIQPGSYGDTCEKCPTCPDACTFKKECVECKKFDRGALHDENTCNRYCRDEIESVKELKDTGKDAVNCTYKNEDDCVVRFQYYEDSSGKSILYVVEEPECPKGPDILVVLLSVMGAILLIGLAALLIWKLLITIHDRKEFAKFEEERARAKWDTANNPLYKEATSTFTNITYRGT

Target: integrin αIIbβ3 on platelets (human (endogenous in platelets)) (UniProt P08514+P05106)
Experiment: static platelet adhesion assay; washed platelets pre-incubated with antagonist peptides (cRGD 10 μM, RGDS 100 μmol L^-1) before adhesion to coated proMMP-13; only the binder purified

CRGDFPASSC (cyclic) [cyclic RGD (H‐Cys‐Arg‐Gly‐Asp‐Phe‐Pro‐Ala‐Ser‐Ser‐Cys‐OH)]
binding: binds
